# Source: article PMC12040169 (PLOS Biology, 2025)
# Some of the results follow.
# System: T1, CTL2-GFP (C. trachomatis L2/434/Bu, GFP-expressing)
# T1 construct: L2/434/Bu, GFP-expressing
# Set-up: species or system HeLa; Intracellular C. trachomatis growth in HeLa cells, bulk GFP fluorescence relative to DMSO
# Conditions: bulk GFP, single well; 28.5 h, 10 µM; inhibitor
row,Compound,% of control remaining [%]
1,OC(CCNC1CCCCC1)(c1ccccc1)c1ccccc1 [CBK013339],110.325
2,Clc1ccccc1COc1cccc(/C=N/Nc2nc(N3CCCC3)nc(N3CCCC3)n2)c1 [CBK019076],106.848
3,Cn1cc(CCC(=O)N2CCN(Cc3ccccn3)CC2)cn1 [CBK305094],122.122
4,Cc1[nH]c2ccccc2c1-c1csc(-c2ccncc2)n1 [CBK264371],104.872
5,Cc1cc(Cl)ccc1OC(C)C(=O)Nc1cc(C(=O)O)cc(C(=O)O)c1 (stereo not drawn) [CBK266483],183.284
6,c1ccc(Nc2nc(-c3ccc4c(c3)OCO4)cn3ccnc23)cc1 [CBK037494],110.036
7,CCOC(=O)C1(Cc2cc(-c3ccccc3)no2)CCCNC1 (stereo not drawn) [CBK284583],88.973
8,Cc1cc(C)c2c(n1)oc1c(NC(C)C)ncnc12 [CBK287917],100.974
9,CN(C)C(=O)CCCN1C(=O)CC2(C1=O)C(=O)N(C)c1ccc(F)cc12 (stereo not drawn) [CBK075380],97.7621
10,CC1CCCC(C)N1CC(O)COc1ccc(/N=C/c2ccccc2O)cc1 (stereo not drawn) [CBK261748],110.258
11,CC(C)(C)OC(=O)N1CCC(CNCc2cc(F)cc(F)c2)CC1 [CBK056715],75.2563
12,COc1ccc(C(NC(=O)c2ccc(Cn3cncn3)cc2)c2ccccc2)cc1 (stereo not drawn) [CBK285749],105.442
13,Nc1ccc2c(-c3ccsc3)ccnc2n1 [CBK067637],51.799
14,Fc1ccc2nc(Nc3nc(-c4ccncc4)cs3)sc2c1 [CBK287487],136.798
15,COc1cccc2cc(C3CN(C(=O)C(C)(C)NC(=O)OC(C)(C)C)CC3C(=O)O)oc12 (stereo not drawn) [CBK001348],82.7629
16,CC(Oc1ccccc1)C(=O)Nc1cccc(C#N)c1 (stereo not drawn) [CBK264062],123.779
17,O=CN1CCc2c([nH]c3ccccc23)C12CCN(CC1CC1)CC2 [CBK040315],168.817
18,NC(=O)C1(Cc2ccc(-c3ccccc3)cc2)CCN(C(=O)c2ccccc2)CC1 [CBK285789],124.768
19,O=C1CSC(c2ccc(F)cc2Cl)c2c[nH]nc2N1 (stereo not drawn) [CBK287935],122.239
20,O=C(O)c1ccccc1C(=O)NCCC1=CCCCC1 [CBK287113],107.062
21,CCN(CC)Cc1c(O)ccc2c(C#N)c(C)n(-c3ccccc3)c12 [CBK261527C],111.685
22,NNC(=O)c1c(NC(=O)c2ccccc2)sc2c1CCC2 [CBK262516],120.543
23,CN(C)CCNC(=O)c1cc(-c2cccnc2)nc2c(Cl)cccc12 [CBK267761],91.7611
24,CN(CC(=O)NCc1ccco1)C1CCCCC1 [CBK304471],143.006
25,O=C(Cc1nnn[nH]1)N1CCC(Cn2cncn2)(C2CCCCC2)CC1 [CBK136796],113.607
26,CC(NS(=O)(=O)N(C)C)c1ccccc1 (stereo not drawn) [CBK263819],111.6

row,Compound,% of control remaining [%]
1,CC(C)c1nc(CCN(C)C(=O)NCc2cc(-c3ccco3)on2)no1 [CBK307443],171.295
2,Cc1nc(C2CC(O)C2)cc(N(C)CCOc2cccc(Cl)c2)n1 (stereo not drawn) [CBK307691],141.089
3,COc1ccc2nc(Nc3nc4c(s3)C(=O)CC(C)(C)C4)sc2c1 [CBK287481],143.267
4,COc1cccc2cc(C(=O)C3=C(O)C(=O)N(CCN4CCOCC4)C3c3cccc(Cl)c3)oc12 (stereo not drawn) [CBK266599],125.153
5,CCOc1ccc(NC(=O)C2C3c4ccccc4C(c4ccccc43)C2C(=O)O)cc1 (stereo not drawn) [CBK261544],110.587
6,C=CCNc1nccnc1-c1ccc(CO)cc1 [CBK036870],111.704
7,CC(C)(C)OC(=O)Nc1ccc(Nc2cc(-c3ccc(F)c(F)c3)ncn2)cc1 [CBK091143],155.262
8,CC(=O)c1cc(C(=O)NC(c2ccccc2)c2cccnc2)cs1 (stereo not drawn) [CBK282514],87.9006
9,CNC(=S)N1CCN(c2nccnc2NS(=O)(=O)C2CC2)CC1 [CBK048905],123.682
10,Cc1ccccc1OCCCn1cncc1-c1cnn(C)c1 [CBK281762],100.767
11,CC(=O)NC[C@H]1CN(c2ccc(C3CNC3)c(F)c2)C(=O)O1 [CBK013035],141.26
12,CCCCCSc1c(C#N)nc(N2CCOCC2)c2c1CC(C)(C)OC2 [CBK021748],101.147
13,Cn1cc(C2c3ccccc3C(=O)N2CC(=O)O)c2ccccc21 (stereo not drawn) [CBK286555],106.711
14,O=C(NCC1CCCCC1)C1(Cc2cccc(-c3cccnc3)c2)CCOCC1 [CBK285607],109.733
15,O=C(Nc1cccc(Cl)c1)N(Cc1ccncc1)CC1CCCO1 (stereo not drawn) [CBK305362],100.316
16,COc1ccc(S(=O)(=O)N(C)CC(=O)Nc2cccc(F)c2)cc1Cl [CBK267882],127.584
17,Cc1nc(SCC(=O)NCC2CCCOC2)oc1C (stereo not drawn) [CBK282195],115.214
18,CC(C(=O)N1CCCC(COc2ccc(F)cc2)C1)n1ccnc1 (stereo not drawn) [CBK282027],140.074
19,Cc1cc(COc2ccnc(N3CCCN(CCCC#N)CC3)n2)no1 [CBK084144],95.039
20,CC(C)C(=O)Nc1cc2ccccc2c(-c2cccc(C(F)(F)F)c2)n1 [CBK085738],82.7411
21,CN(C(=O)CN1CCN(c2cc(-c3cccc4oc5ccccc5c34)ncn2)CC1)c1ccccc1 [CBK091130],186.344
22,Cc1ccccc1OCC(=O)Nc1ccc(C(=O)O)c(Cl)c1 [CBK287027],138.249
23,CN1CCN(S(=O)(=O)c2ccc(Oc3ccccc3)cc2)CC1 [CBK062430],113.945
24,CN1CCCN(c2cncc(-c3cccc(OC(F)(F)F)c3)n2)CC1 [CBK065949],134.818
25,CN1CCC[C@H]1C(=O)Nc1cc(-c2ccncc2)c[nH]c1=O [CBK116587],121.929

# Part of the list above, with tabs.
row	Compound	% of control remaining [%]
1	CC(C)c1nc(CCN(C)C(=O)NCc2cc(-c3ccco3)on2)no1 [CBK307443]	171.295
2	Cc1nc(C2CC(O)C2)cc(N(C)CCOc2cccc(Cl)c2)n1 (stereo not drawn) [CBK307691]	141.089
3	COc1ccc2nc(Nc3nc4c(s3)C(=O)CC(C)(C)C4)sc2c1 [CBK287481]	143.267
4	COc1cccc2cc(C(=O)C3=C(O)C(=O)N(CCN4CCOCC4)C3c3cccc(Cl)c3)oc12 (stereo not drawn) [CBK266599]	125.153
5	CCOc1ccc(NC(=O)C2C3c4ccccc4C(c4ccccc43)C2C(=O)O)cc1 (stereo not drawn) [CBK261544]	110.587
